PubChem BioAssay AID1159599 | NIAID | 2016
In all, the deposit lists 756 reagents; below is a part drawn at random. 130 of all reagents (17%) count as active. 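Calls are two-sided: actives include siRNAs that raised the Tnf reporter as well as ones that lowered it.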 Entries without a mark were called inactive. The numbers tell different reagents against one gene apart. No sequences are given here. The record does not give: the amount of reagent.

Screen: 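Effect of knocking down TLR signalling components on Tnf reporter after LPS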
Cell system: mouse RAW264.7 G9 macrophage reporter clone cells
Knock-down reagent: single siRNA against mouse genes
Timing: 48 to 72 h after siRNA transfection, LPS for the last 16 h
Treatment: LPS (Salmonella minnesota R595), 16 h before fixation; dose not stated
Detection: 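Nuclear mCherry from a Tnf promoter reporter imaged after LPS, background removed, robust z-score from per-plate median and MAD, averaged over replicates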
Reading the numbers: Tnf reporter z-score: higher = stronger Tnf promoter reporter signal after LPS
Hit rule: 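Active when the replicate-mean Tnf reporter z-score is about -1.5 or lower, or about 1.5 or higher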
Calls: active = strong change either way; inactive = little change

| Gene | siRNA no. | Tnf reporter z-score, replicate mean |
| --- | --- | --- |
| Akt2 | 1 | -0.448 |
| Akt2 | 2 | -2.33 (active) |
| Akt2 | 3 | -0.454 |
| Akt2 | 4 | -2.06 (active) |
| Akt2 | 5 | -1.08 |
| Akt2 | 6 | -0.615 |
| Traf6 | 1 | -0.35 |
| Traf6 | 2 | -0.74 |
| Traf6 | 3 | -1.33 |
| Traf6 | 4 | 0.187 |
| Traf6 | 5 | -0.418 |
| Traf6 | 6 | -0.834 |
| Lbp | 1 | -0.0731 |
| Lbp | 2 | 0.116 |
| Lbp | 3 | -0.578 |
| Lbp | 4 | -0.55 |
| Lbp | 5 | 0.774 |
| Lbp | 6 | -0.433 |
| Tlr2 | 1 | 0.103 |
| Tlr2 | 2 | -0.346 |
| Tlr2 | 3 | 1.38 |
| Tlr2 | 4 | 0.924 |
| Tlr2 | 5 | -1.05 |
| Tlr2 | 6 | 0.0604 |
| Irak4 | 1 | 0.692 |
| Irak4 | 2 | -1.61 (active) |
| Irak4 | 3 | -1.44 |
| Irak4 | 4 | -1.39 |
| Irak4 | 5 | -1.33 |
| Irak4 | 6 | -1.09 |
| Cyld | 1 | 1.55 (active) |
| Cyld | 2 | -0.717 |
| Cyld | 3 | -0.424 |
| Cyld | 4 | 0.89 |
| Cyld | 5 | 1.97 (active) |
| Cyld | 6 | 1.46 |
| Dusp2 | 1 | 0.668 |
| Dusp2 | 2 | -2 (active) |
| Dusp2 | 3 | 2.29 (active) |
| Dusp2 | 4 | 0.734 |
| Dusp2 | 5 | -0.374 |
| Dusp2 | 6 | -0.688 |
| Mapk10 | 1 | 2.14 (active) |
| Mapk10 | 2 | 0.897 |
| Mapk10 | 3 | -1.17 |
| Mapk10 | 4 | 0.548 |
| Mapk10 | 5 | -0.058 |
| Mapk10 | 6 | -1.09 |
| Nfkbib | 1 | 0.00367 |
| Nfkbib | 2 | -0.753 |
| Nfkbib | 3 | 0.0697 |
| Nfkbib | 4 | -0.85 |
| Nfkbib | 5 | -1.31 |
| Nfkbib | 6 | -0.731 |
| Sp1 | 1 | -1.23 |
| Sp1 | 2 | -1.32 |
| Sp1 | 3 | -1.79 (active) |
| Sp1 | 4 | -0.753 |
| Sp1 | 5 | 0.023 |
| Sp1 | 6 | -1.93 (active) |
| Map2k3 | 1 | -0.409 |
| Map2k3 | 2 | 0.0732 |
| Map2k3 | 3 | -0.0163 |
| Map2k3 | 4 | -0.652 |
| Map2k3 | 5 | -1.31 |
| Map2k3 | 6 | 1.5 (active) |
| Cxcl9 | 1 | -1.11 |
| Cxcl9 | 2 | 0.536 |
| Cxcl9 | 3 | 0.278 |
| Cxcl9 | 4 | -1.34 |
| Cxcl9 | 5 | -0.0468 |
| Cxcl9 | 6 | 0.45 |
| Irf3 | 1 | 1.39 |
| Irf3 | 2 | -0.331 |
| Irf3 | 3 | -1.69 (active) |
| Irf3 | 4 | -1.71 (active) |
| Irf3 | 5 | -0.402 |
| Irf3 | 6 | 0.515 |
| Ly96 | 1 | 0.0627 |
| Ly96 | 2 | -2.11 (active) |
| Ly96 | 3 | -0.861 |
| Ly96 | 4 | -0.65 |
| Ly96 | 5 | -1.07 |
| Ly96 | 6 | -0.823 |
| Ifnb1 | 1 | 1.55 (active) |
| Ifnb1 | 2 | -1.64 (active) |
| Ifnb1 | 3 | -1.07 |
| Ifnb1 | 4 | 1.72 (active) |
| Ifnb1 | 5 | -1.77 (active) |
| Ifnb1 | 6 | -0.777 |
| Mapk8 | 1 | 1.95 (active) |
| Mapk8 | 2 | 0.366 |
| Mapk8 | 3 | -1.26 |
| Mapk8 | 4 | 0.197 |
| Mapk8 | 5 | -0.352 |
| Mapk8 | 6 | -0.956 |
| Irf5 | 1 | -0.806 |
| Irf5 | 2 | -0.219 |
| Irf5 | 3 | 0.045 |
| Irf5 | 4 | -1.24 |
| Irf5 | 5 | -0.502 |
| Irf5 | 6 | -0.128 |
| Akt1 | 1 | 0.398 |
| Akt1 | 2 | -1.31 |
| Akt1 | 3 | 0.616 |
| Akt1 | 4 | -0.148 |
| Akt1 | 5 | -0.948 |
| Akt1 | 6 | -1.4 |
| Irf9 | 1 | 2.22 (active) |
| Irf9 | 2 | 0.413 |
| Irf9 | 3 | 0.0436 |
| Irf9 | 4 | 0.753 |
| Irf9 | 5 | 1.18 |
| Irf9 | 6 | -0.615 |

Reprinted from above for reference:
| Gene | siRNA no. | Tnf reporter z-score, replicate mean |
| --- | --- | --- |
| Irf3 | 5 | -0.402 |
| Irf3 | 6 | 0.515 |
| Ly96 | 1 | 0.0627 |
| Ly96 | 2 | -2.11 (active) |
| Ly96 | 3 | -0.861 |
| Ly96 | 4 | -0.65 |
| Ly96 | 5 | -1.07 |
| Ly96 | 6 | -0.823 |
| Ifnb1 | 1 | 1.55 (active) |
| Ifnb1 | 2 | -1.64 (active) |
| Ifnb1 | 3 | -1.07 |
| Ifnb1 | 4 | 1.72 (active) |
| Ifnb1 | 5 | -1.77 (active) |
| Ifnb1 | 6 | -0.777 |
| Mapk8 | 1 | 1.95 (active) |
| Mapk8 | 2 | 0.366 |
